In US7763658B2, “Treatment for cancers” (Synta Pharmaceuticals Corp., priority 2003, dated 2010):
For at least one compound, name, drawing or mass did not settle the structure.

System: human breast carcinoma MDA-435 tumors
Type: in vivo
Conditions: Compound (1) 50 mg/kg + Epothilone D 5 mg/kg intravenously, 3 times a week for 3 weeks; FIG. 3

Question: With `CN(NC(=O)CC(=O)NN(C)C(=S)c1ccccc1)C(=S)c1ccccc1` [Compound (1)] as the molecule, how does the “effect on anti-tumor activity of Epothilone D (tumor volume)” value read?
Answer: significantly enhanced anti-tumor activity of Epothilone D
